System: papilloma
Assay type: in vivo, mice
Source text: Pdx-Cre^+/− (Stock190 014647, Jackson Laboratories, Bar Harbor, Me.), Kras^(G12D)+/− (Stock#008179, Jackson Laboratories), and Trp53^(R172H)+/− (Stock#01XM2, NCI Fredrick Mouse Repository) mice were crossed to generate Pdx-Cre^+/− Kras ^(G12D)+/− Trp53^(R172H)+/− that generate pancreatic tumors (Hingorani et al., Cancer Cell 7:469-483, 2005). At variable penetrance, mice develop papilloma of the face and anogenital region (Hingorani et al., Cancer Cell 7:469-483, 2005; Gades et al., Comp. Med. 58:271-275, 2008). Mice bearing papilloma with no evidence of pancreatic tumors and less than 90 days of age were accrued to this study. Masses were treated by injection of 25 μg of c-di-CDG (Invivogen, San Diego, Calif., Catalog No. tlrl-naldg), Imiquimod (Invivogen) or PBS vehicle.
STING ligands were administered into the papilloma by direct injection with a total dose of 25 μg administered in a 25 μl injection volume. In the control case, 25 μg of Imiquimod was administered using the same technique. For larger papillomas, the injection was split between different sites within the same growth. The total dose to the growth remained 25 μg in each case. The animals were retreated on day 7 with a second cycle of injections.
Rapid alterations in small papilloma to resemble normal skin were observed within 18 hours of treatment (FIGS. 2A and B). […]

## Nc1nc2c(ncn2[C@@H]2O[C@@H]3COP(=O)(O)O[C@H]4[C@@H](O)[C@H](n5cnc6c(=O)[nH]c(N)nc65)O[C@@H]4COP(=O)(O)O[C@H]3[C@H]2O)c(=O)[nH]1 [CDG, cyclic diguanylate monophosphate]
18 hours after injection into small papilloma
  histological analysis of injected site: inflammatory infiltrate in the subcutaneous space
Larger papilloma, injections on d0, d1, d7 and d8
  appearance of treated papilloma: evidence of blackening

Reference: patent US20170239283A1, “USE OF STING AGONISTS TO TREAT VIRALLY-INDUCED AND PRE-MALIGNANT GROWTHS” (Providence Health & Services - Oregon, priority 2016, published 2017)
